In article PMC5294206:
No constants are given. Whether binding was seen depends on the method and setting. In cells and extracts the contact can be indirect. Here binding means that the protein was enriched with, or labelled near, the bait; the list need not be complete. Where a sequence is shown, tags or fusion partners need not be part of it. Each block holds one molecule with its values, some of them ahead of it.

The chains behind the UniProt entries cited, without tags or fusion partners.
UniProt Q9Y5S2: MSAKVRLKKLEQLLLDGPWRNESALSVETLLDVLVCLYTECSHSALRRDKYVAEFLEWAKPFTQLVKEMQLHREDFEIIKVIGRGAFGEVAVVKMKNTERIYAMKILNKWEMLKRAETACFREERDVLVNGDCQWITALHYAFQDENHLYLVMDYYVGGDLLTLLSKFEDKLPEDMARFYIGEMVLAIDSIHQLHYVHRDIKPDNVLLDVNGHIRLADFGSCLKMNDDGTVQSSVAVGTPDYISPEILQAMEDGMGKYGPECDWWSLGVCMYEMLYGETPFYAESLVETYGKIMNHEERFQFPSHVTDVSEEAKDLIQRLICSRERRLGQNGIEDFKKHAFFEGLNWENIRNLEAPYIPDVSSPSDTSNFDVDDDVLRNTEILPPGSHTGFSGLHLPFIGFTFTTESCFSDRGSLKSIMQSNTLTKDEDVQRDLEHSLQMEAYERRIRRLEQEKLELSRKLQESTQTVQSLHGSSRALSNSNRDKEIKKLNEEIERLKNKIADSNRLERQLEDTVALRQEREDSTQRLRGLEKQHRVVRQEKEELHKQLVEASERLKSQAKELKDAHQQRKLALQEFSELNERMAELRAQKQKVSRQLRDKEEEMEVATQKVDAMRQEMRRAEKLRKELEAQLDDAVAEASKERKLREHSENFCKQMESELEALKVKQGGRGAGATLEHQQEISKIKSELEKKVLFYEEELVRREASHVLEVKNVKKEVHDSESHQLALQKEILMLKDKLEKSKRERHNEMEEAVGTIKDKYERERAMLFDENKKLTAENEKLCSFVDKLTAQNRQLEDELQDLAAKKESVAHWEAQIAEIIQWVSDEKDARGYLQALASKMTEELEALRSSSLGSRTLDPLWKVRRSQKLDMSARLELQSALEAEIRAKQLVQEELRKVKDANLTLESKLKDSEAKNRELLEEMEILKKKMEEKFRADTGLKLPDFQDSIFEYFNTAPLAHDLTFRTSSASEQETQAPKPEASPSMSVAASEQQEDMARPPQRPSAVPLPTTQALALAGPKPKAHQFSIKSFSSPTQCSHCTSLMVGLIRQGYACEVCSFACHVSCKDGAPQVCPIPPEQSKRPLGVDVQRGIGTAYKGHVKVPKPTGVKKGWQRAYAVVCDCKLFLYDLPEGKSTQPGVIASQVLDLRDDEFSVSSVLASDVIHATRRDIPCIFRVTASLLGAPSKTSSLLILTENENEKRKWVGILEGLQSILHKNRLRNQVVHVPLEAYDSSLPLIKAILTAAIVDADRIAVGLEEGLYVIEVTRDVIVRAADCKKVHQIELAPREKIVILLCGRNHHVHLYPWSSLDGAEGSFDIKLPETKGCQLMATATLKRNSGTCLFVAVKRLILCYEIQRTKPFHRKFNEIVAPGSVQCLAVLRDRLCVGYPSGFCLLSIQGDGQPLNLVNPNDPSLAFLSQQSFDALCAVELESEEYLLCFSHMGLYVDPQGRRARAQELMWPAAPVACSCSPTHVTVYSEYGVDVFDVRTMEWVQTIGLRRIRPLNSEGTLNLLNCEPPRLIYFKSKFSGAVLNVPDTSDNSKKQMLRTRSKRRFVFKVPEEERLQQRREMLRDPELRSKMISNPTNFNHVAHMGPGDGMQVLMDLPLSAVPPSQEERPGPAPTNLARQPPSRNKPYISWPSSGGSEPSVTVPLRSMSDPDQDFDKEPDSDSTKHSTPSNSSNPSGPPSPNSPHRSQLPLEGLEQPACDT
UniProt P46940: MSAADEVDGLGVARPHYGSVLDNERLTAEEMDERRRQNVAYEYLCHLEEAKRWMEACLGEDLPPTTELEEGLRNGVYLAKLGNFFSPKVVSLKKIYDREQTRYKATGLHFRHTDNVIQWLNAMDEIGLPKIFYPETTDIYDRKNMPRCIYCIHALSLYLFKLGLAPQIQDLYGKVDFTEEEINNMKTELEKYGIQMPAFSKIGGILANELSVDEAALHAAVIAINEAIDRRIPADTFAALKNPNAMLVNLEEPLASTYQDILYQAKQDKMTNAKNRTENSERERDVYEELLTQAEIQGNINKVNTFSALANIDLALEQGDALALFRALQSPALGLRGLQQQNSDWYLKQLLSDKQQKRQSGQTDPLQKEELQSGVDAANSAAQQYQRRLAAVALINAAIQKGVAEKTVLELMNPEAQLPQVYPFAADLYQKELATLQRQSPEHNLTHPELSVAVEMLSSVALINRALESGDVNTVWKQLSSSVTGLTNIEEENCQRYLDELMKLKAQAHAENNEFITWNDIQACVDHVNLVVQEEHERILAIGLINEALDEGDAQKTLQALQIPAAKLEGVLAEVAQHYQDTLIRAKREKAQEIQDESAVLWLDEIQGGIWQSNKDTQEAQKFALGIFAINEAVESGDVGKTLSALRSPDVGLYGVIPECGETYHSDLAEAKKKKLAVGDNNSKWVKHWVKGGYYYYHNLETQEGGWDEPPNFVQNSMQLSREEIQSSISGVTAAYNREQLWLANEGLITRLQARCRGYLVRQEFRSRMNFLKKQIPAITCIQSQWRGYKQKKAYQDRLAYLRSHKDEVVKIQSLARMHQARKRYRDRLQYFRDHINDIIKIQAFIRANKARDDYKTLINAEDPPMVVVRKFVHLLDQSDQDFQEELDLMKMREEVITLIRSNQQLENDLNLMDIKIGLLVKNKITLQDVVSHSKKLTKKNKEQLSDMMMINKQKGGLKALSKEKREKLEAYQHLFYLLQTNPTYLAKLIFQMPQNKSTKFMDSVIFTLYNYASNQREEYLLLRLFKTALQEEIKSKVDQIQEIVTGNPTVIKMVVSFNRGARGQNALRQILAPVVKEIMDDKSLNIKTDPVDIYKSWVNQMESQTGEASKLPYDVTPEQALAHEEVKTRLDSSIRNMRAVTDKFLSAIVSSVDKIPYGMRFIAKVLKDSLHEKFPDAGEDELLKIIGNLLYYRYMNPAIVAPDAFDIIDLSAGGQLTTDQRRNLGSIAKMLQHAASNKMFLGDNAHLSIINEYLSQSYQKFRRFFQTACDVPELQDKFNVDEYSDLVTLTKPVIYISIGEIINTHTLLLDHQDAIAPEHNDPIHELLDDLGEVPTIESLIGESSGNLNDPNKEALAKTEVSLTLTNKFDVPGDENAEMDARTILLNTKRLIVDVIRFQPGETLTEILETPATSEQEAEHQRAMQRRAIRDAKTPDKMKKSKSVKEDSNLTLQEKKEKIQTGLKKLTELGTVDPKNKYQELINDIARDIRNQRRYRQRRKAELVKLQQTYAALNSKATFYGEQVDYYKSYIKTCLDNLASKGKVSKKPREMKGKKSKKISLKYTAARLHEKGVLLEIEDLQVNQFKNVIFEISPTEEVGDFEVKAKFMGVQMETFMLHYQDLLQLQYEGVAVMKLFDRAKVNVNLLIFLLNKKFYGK
UniProt P07737: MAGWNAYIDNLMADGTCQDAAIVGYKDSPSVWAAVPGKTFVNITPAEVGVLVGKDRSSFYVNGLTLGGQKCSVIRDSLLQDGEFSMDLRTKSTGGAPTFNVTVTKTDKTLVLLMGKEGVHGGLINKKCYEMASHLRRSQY
UniProt O94851: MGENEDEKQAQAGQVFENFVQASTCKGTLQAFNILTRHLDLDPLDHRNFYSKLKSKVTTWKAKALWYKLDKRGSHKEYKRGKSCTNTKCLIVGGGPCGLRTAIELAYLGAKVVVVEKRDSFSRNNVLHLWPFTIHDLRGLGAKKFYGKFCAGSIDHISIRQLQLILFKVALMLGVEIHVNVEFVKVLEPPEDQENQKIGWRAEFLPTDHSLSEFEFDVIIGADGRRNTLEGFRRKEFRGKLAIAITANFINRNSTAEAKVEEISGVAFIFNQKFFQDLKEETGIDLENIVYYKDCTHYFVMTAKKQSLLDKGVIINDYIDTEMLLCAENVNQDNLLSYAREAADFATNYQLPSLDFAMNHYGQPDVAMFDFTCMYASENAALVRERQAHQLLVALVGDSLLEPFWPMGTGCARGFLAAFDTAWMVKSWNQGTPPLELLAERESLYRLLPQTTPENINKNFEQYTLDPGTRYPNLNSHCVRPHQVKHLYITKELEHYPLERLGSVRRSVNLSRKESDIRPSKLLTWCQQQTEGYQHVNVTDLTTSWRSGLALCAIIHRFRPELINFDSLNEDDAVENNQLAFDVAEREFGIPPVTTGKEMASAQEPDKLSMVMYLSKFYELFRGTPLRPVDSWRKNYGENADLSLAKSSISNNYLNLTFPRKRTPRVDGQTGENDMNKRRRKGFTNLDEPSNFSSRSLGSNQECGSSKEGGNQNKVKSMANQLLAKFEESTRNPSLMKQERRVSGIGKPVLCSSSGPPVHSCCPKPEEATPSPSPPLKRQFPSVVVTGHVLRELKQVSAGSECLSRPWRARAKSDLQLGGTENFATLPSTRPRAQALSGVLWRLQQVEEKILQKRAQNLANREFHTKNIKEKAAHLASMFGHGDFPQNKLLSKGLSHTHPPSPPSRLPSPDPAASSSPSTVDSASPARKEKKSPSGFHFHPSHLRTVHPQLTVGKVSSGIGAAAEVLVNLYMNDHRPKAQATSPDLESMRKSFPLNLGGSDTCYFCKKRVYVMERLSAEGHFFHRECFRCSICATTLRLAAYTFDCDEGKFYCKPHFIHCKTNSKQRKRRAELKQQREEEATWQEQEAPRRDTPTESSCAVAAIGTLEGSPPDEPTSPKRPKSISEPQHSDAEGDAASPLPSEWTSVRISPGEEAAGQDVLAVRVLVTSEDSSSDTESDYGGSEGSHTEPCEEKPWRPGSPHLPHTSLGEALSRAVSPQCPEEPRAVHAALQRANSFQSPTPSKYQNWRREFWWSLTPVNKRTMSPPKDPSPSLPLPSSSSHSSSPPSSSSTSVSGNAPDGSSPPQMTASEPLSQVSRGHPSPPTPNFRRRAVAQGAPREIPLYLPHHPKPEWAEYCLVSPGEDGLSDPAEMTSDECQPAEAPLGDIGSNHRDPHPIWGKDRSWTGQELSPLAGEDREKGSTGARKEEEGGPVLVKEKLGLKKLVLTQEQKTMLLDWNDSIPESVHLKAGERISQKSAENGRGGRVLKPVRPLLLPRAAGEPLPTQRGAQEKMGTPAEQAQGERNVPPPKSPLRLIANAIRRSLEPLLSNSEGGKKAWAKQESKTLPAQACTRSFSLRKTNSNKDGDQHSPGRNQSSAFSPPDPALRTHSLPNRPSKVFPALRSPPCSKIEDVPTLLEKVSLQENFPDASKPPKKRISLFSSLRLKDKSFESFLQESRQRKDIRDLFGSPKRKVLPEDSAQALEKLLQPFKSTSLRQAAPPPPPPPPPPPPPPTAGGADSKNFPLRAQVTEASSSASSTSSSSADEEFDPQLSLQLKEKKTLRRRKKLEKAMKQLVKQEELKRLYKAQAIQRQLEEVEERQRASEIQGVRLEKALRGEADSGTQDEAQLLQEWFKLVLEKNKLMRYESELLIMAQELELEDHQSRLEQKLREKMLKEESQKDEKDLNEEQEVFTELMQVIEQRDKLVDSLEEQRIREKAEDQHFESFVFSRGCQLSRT
UniProt Q08AE8: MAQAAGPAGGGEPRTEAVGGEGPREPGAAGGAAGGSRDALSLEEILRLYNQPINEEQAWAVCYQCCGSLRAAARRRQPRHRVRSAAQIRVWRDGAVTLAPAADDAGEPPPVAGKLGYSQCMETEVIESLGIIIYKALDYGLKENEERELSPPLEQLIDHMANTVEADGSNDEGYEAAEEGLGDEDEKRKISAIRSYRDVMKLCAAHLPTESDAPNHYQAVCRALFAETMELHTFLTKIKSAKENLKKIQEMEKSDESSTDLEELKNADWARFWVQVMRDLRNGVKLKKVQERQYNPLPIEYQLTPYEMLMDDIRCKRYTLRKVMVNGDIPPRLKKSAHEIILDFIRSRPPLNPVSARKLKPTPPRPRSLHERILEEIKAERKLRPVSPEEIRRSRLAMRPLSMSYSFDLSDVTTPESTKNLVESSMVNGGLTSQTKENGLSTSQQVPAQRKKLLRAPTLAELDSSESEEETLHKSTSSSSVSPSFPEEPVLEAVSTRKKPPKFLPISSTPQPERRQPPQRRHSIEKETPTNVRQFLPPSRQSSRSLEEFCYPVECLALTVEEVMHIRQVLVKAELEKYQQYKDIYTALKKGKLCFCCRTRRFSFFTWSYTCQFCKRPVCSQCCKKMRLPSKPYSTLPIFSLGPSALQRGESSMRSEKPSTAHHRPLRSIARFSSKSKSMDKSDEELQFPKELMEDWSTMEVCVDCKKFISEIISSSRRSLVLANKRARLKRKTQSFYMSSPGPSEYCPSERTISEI
UniProt P62258: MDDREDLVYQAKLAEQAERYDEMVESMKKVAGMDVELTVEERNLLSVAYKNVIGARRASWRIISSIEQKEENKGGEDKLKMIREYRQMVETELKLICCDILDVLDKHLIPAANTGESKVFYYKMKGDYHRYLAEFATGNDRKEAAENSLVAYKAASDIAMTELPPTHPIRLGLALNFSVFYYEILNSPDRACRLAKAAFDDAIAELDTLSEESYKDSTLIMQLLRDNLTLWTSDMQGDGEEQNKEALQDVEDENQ

Biological target: T1, wild-type (WT) p130Cas, overexpressed from adenovirus (Ad.p130Cas) (UniProt P56945)
T1 sequence: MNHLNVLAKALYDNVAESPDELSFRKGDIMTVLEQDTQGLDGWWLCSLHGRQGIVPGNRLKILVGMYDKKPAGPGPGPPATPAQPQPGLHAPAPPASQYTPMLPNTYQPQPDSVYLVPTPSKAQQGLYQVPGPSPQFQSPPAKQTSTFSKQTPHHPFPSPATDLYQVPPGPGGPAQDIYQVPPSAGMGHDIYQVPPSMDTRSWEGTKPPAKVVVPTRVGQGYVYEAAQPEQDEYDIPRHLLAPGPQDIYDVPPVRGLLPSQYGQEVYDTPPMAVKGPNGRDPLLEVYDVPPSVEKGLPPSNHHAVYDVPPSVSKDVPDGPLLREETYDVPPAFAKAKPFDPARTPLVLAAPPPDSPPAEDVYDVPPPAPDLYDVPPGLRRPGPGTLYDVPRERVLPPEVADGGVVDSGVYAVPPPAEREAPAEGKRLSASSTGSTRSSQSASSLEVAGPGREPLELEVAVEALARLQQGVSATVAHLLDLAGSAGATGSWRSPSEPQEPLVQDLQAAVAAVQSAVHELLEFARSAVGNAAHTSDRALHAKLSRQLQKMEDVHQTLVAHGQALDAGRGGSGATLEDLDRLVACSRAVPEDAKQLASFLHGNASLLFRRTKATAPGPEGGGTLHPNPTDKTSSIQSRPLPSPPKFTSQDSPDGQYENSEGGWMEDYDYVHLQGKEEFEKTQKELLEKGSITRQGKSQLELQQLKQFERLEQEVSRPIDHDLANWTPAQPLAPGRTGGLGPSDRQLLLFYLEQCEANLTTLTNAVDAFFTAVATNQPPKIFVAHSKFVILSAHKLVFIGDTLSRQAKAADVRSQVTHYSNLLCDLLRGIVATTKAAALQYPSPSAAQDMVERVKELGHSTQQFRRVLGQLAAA
Experiment: affinity purification with mass spectrometry; p130Cas antibody immunoprecipitates from lysates of HUVECs infected with Ad.p130Cas, treated with VEGF for 0, 10, 30 and 60 min; lysis in 10 mM Tris-HCl pH 7.4, 50 mM NaCl, 5 mM EDTA, 1% Triton-X100; isotype-matched mouse IgG as control; label-free LC-MS/MS, three independent experiments

binding: binds
Molecule: CDC42 binding protein kinase beta (CDC42BPB or myotonic dystrophy-related CDC42-binding kinase (MRCKβ)) (from UniProt Q9Y5S2 1-1711)

binding: binds
Molecule: IQGAP1, GTPase-binding scaffold protein, endogenous (from UniProt P46940 1-1657)

binding: binds
Molecule: Profilin-1 (from UniProt P07737 1-140)

binding: binds
B4: RhoGEF and PH domain containing 5 (FGD5) (protein, UniProt Q6ZNL6 1-1462)
chain: MFRGPKPPIAPKPRLTAPNEWRASVYLNDSLNKCSNGRLPCVDRGLDEGPRSIPKCSESETDEDYIVVPRVPLREDEPKDEGSVGNKALVSPESSAEEEEEREEGGEACGLEGTGAGEDSVAPAAPGAGALSREGEEGTDLALEDEGEGCADEPGTLEQVSRSEEEEKLVQPHRECSLEDSGPWAGEGVFQSDLLLPHIHGEDQEPPDTPGEAEEDDEEGCASTDPAGADEGSGPDRPTEDMGQDAEDTSEEPPEKEELAGVQEAETATDCPEVLEEGCEEATGVTGGEQVDLSEPPDHEKKTNQEVAAATLEDHAQDESAEESCQIVPFENDCMEDFVTSLTGSPYEFFPTESTSFCSESCSPLSESAKGLESEQAPKLGLRAEENPMVGALCGQCGSLQGGAAEGPAAPDVVVVLEEEALDDALANPYVMGVGLPGQAAPGEGGQAASDALGGYGSKEELNCEAEGGLVPADRKNTSTRVRPHSGKVAGYVPETVPEETGPEAGSSAPGIGGAAEEVGKTLLSLEGKPLEASRALPAKPRAFTLYPRSFSVEGREIPVSVYQEPEGSGLDDHRIKRKEDNLSLSCVIGSSGSFSQRNHLPSSGTSTPSSMVDIPPPFDLACITKKPITKSSPSLLIESDSPDKYKKKKSSFKRFLALTFKKKTENKLHVDVNVSSSRSSSESSYHGPSRILEVDRRSLSNSPQLKSRTGKLRASESPSSLIFYRDGKRKGVPFSRTVSRVESFEDRSRPPFLPLPLTKPRSISFPSADTSDYENIPAMNSDYENIQIPPRRPARAGAFTKLFEDQSRALSTANENDGYVDMSSFNAFESKQQSADQDAESAYTEPYKVCPISSAAPKEDLTSDEEQRSSEEEDSASRDPSVTHKVEGQSRALVIAQELLSSEKAYVEMLQHLNLDFHGAVMRALDDMDHEGRDTLAREELRQGLSELPAIHDLHQGILEELEERLSNWESQQKVADVFLAREQGFDHHATHILQFDRYLGLLSENCLHSPRLAAAVREFEQSVQGGSQTAKHRLLRVVQRLFQYQVLLTDYLNNLCPDSAEYDNTQGALSLISKVTDRANDSMEQGENLQKLVHIEHSVRGQGDLLQPGREFLKEGTLMKVTGKNRRPRHLFLMNDVLLYTYPQKDGKYRLKNTLAVANMKVSRPVMEKVPYALKIETSESCLMLSASSCAERDEWYGCLSRALPEDYKAQALAAFHHSVEIRERLGVSLGERPPTLVPVTHVMMCMNCGCDFSLTLRRHHCHACGKIVCRNCSRNKYPLKYLKDRMAKVCDGCFGELKKRGRAVPGLMRERPVSMSFPLSSPRFSGSAFSSVFQSINPSTFKKQKKVPSALTEVAASGEGSAISGYLSRCKRGKRHWKKLWFVIKGKVLYTYMASEDKVALESMPLLGFTIAPEKEEGSSEVGPIFHLYHKKTLFYSFKAEDTNSAQRWIEAMEDASVL

More lines, now with the values behind:

Molecule: Slit-Robo Rho GTPase activating protein 1 (SRGAP1) (from UniProt Q7Z6B7 1-1085)
binding: binds

Molecule: microtubule associated monooxygenase, calponin and LIM domain containing 2 (MICAL2) (from UniProt O94851 1-1957)
binding: binds

Molecule: spire type actin nucleation factor 1 (SPIRE1) (from UniProt Q08AE8 1-756)
binding: binds

Molecule: tyrosine 3-monooxygenase/tryptophan 5-monooxygenase activation protein epsilon (YWHAE or 14-3-3 epsilon) (from UniProt P62258 1-255)
binding: binds

B1: cysteine and glycine rich protein 2 (CSRP2) (protein, UniProt Q16527 1-193)
chain: MPVWGGGNKCGACGRTVYHAEEVQCDGRSFHRCCFLCMVCRKNLDSTTVAIHDEEIYCKSCYGKKYGPKGYGYGQGAGTLNMDRGERLGIKPESVQPHRPTTNPNTSKFAQKYGGAEKCSRCGDSVYAAEKIIGAGKPWHKNCFRCAKCGKSLESTTLTEKEGEIYCKGCYAKNFGPKGFGYGQGAGALVHAQ
binding: binds

B2: cysteine and glycine rich protein 1 (CSRP1) (protein, UniProt P21291 1-193)
chain: MPNWGGGKKCGVCQKTVYFAEEVQCEGNSFHKSCFLCMVCKKNLDSTTVAVHGEEIYCKSCYGKKYGPKGYGYGQGAGTLSTDKGESLGIKHEEAPGHRPTTNPNASKFAQKIGGSERCPRCSQAVYAAEKVIGAGKSWHKACFRCAKCGKGLESTTLADKDGEIYCKGCYAKNFGPKGFGFGQGAGALVHSE
binding: binds

B3: aldolase-A (protein, UniProt P04075 1-364)
chain: MPYQYPALTPEQKKELSDIAHRIVAPGKGILAADESTGSIAKRLQSIGTENTEENRRFYRQLLLTADDRVNPCIGGVILFHETLYQKADDGRPFPQVIKSKGGVVGIKVDKGVVPLAGTNGETTTQGLDGLSERCAQYKKDGADFAKWRCVLKIGEHTPSALAIMENANVLARYASICQQNGIVPIVEPEILPDGDHDLKRCQYVTEKVLAAVYKALSDHHIYLEGTLLKPNMVTPGHACTQKFSHEEIAMATVTALRRTVPPAVTGITFLSGGQSEEEASINLNAINKCPLLKPWALTFSYGRALQASALKAWGGKKENLKAAQEEYVKRALANSLACQGKYTPSGQAGAAASESLFVSNHAY
binding: binds
